Measured values: publication PMC3299254 (International Journal of Microbiology, 2012)

Experiment: peptide synthesis
Conditions: whole synthesis, RP-HPLC

With KWKSFIKKLTSKFLHSAKKF-NH2 the “final HPLC purity” value was 92.3%.
